{"source": "patent US11123323B2", "about": "“Monoterpenes for treating respiratory disorders, in particular bronchopulmonary disorders” (Maria Clemetine Martin Klosterfrau Vertriebsqesellschaft MBH, priority 2008, dated 2021)", "key": {"[1]": {"system": "superoxide dismutases (SOD)", "assay": "Superoxide dismutase activity"}, "[2]": {"system": "production of O2^− radicals", "assay": "Further investigations: production of O2^− radicals with fluticasone"}}, "note": "At least one compound was matched to its structure with a doubt left.", "data": [{"smiles": "C[C@@H]1C[C@H]2[C@@H]3C[C@H](F)C4=CC(=O)C=C[C@]4(C)[C@@]3(F)[C@@H](O)C[C@]2(C)[C@@]1(O)C(=O)SCF", "note": "[fluticasone]", "values": [{"measurement": "superoxide dismutase activity", "setting": "[1]", "value": "inhibition of superoxide dismutase"}, {"measurement": "production of O2^− radicals", "setting": "[2]", "value": "induces the production of O2^− radicals"}]}]}
